{"source": "PubChem BioAssay AID1259308 (NCATS, 2017)", "aim": "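Candidate targets for better recombinant protein yield in mammalian cells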 (primary screen)", "cell system": "human HEK293 embryonic kidney cells stably expressing firefly luciferase (HEK-CMV-Luc2-Hygro)", "reagent": "single siRNA against human genes, 0.8 pmol siRNA per well", "timing": "72 h", "measured": "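Luciferase light (ONE-Glo) measured on one replicate plate set and viability (CellTiter-Glo) on the other, scaled to a negative control siRNA, with robust z-scores and luciferase per cell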", "scale": "total luciferase, z-score: higher = more reporter protein produced", "active means": "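Active when the median/MAD z-score for overall luciferase is greater than 3; a gene was taken forward for validation with new siRNAs if at least two of its three siRNAs passed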", "meaning of the calls": "active = raised luciferase; inactive = no rise", "note": "The whole screen tested about 59,000 reagents; below is a random part of them. About 1,510 of all reagents (2.6%) were called active. 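Calls use total luciferase alone and ignore viability, so some active siRNAs may act by altering cell number.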 Reagents against one gene are numbered here. Further read-outs or replicates are left out here."}
{"Target gene": "RAB11FIP4 (GeneID 84440)", "reagent": 1, "total luciferase, z-score": 0.937, "activity call": "inactive"}
{"Target gene": "RAB11FIP4 (GeneID 84440)", "reagent": 2, "total luciferase, z-score": -0.451, "activity call": "inactive"}
{"Target gene": "RAB11FIP4 (GeneID 84440)", "reagent": 3, "total luciferase, z-score": 1.58, "activity call": "inactive"}
{"Target gene": "DBF4P1 (GeneID 645084)", "reagent": 1, "total luciferase, z-score": -2.25, "activity call": "inactive"}
{"Target gene": "DBF4P1 (GeneID 645084)", "reagent": 2, "total luciferase, z-score": -0.116, "activity call": "inactive"}
{"Target gene": "DBF4P1 (GeneID 645084)", "reagent": 3, "total luciferase, z-score": -1.28, "activity call": "inactive"}
{"Target gene": "VSIR (GeneID 64115)", "reagent": 1, "total luciferase, z-score": -0.181, "activity call": "inactive"}
{"Target gene": "VSIR (GeneID 64115)", "reagent": 2, "total luciferase, z-score": -1.13, "activity call": "inactive"}
{"Target gene": "VSIR (GeneID 64115)", "reagent": 3, "total luciferase, z-score": 0.426, "activity call": "inactive"}
{"Target gene": "CCDC68 (GeneID 80323)", "reagent": 1, "total luciferase, z-score": 0.315, "activity call": "inactive"}
{"Target gene": "CCDC68 (GeneID 80323)", "reagent": 2, "total luciferase, z-score": 1.97, "activity call": "inactive"}
{"Target gene": "CCDC68 (GeneID 80323)", "reagent": 3, "total luciferase, z-score": 0.186, "activity call": "inactive"}
{"Target gene": "RSPH9 (GeneID 221421)", "reagent": 1, "total luciferase, z-score": 0.236, "activity call": "inactive"}
{"Target gene": "RSPH9 (GeneID 221421)", "reagent": 2, "total luciferase, z-score": -0.181, "activity call": "inactive"}
{"Target gene": "RSPH9 (GeneID 221421)", "reagent": 3, "total luciferase, z-score": -0.339, "activity call": "inactive"}
{"Target gene": "JPH4 (GeneID 84502)", "reagent": 1, "total luciferase, z-score": 0.739, "activity call": "inactive"}
{"Target gene": "JPH4 (GeneID 84502)", "reagent": 2, "total luciferase, z-score": -1.57, "activity call": "inactive"}
{"Target gene": "JPH4 (GeneID 84502)", "reagent": 3, "total luciferase, z-score": 2.88, "activity call": "inactive"}
{"Target gene": "DPY19L2 (GeneID 283417)", "reagent": 1, "total luciferase, z-score": 4.88, "activity call": "active"}
{"Target gene": "DPY19L2 (GeneID 283417)", "reagent": 2, "total luciferase, z-score": 0.112, "activity call": "inactive"}
{"Target gene": "DPY19L2 (GeneID 283417)", "reagent": 3, "total luciferase, z-score": -0.714, "activity call": "inactive"}
{"Target gene": "RGL2 (GeneID 5863)", "reagent": 1, "total luciferase, z-score": 1.65, "activity call": "inactive"}
{"Target gene": "RGL2 (GeneID 5863)", "reagent": 2, "total luciferase, z-score": 0.434, "activity call": "inactive"}
{"Target gene": "RGL2 (GeneID 5863)", "reagent": 3, "total luciferase, z-score": 0.151, "activity call": "inactive"}
{"Target gene": "IER5 (GeneID 51278)", "reagent": 1, "total luciferase, z-score": -0.333, "activity call": "inactive"}
{"Target gene": "IER5 (GeneID 51278)", "reagent": 2, "total luciferase, z-score": 0.549, "activity call": "inactive"}
{"Target gene": "IER5 (GeneID 51278)", "reagent": 3, "total luciferase, z-score": 0.141, "activity call": "inactive"}
{"Target gene": "SEMG1 (GeneID 6406)", "reagent": 1, "total luciferase, z-score": 0.681, "activity call": "inactive"}
{"Target gene": "SEMG1 (GeneID 6406)", "reagent": 2, "total luciferase, z-score": -0.252, "activity call": "inactive"}
{"Target gene": "SEMG1 (GeneID 6406)", "reagent": 3, "total luciferase, z-score": 1.05, "activity call": "inactive"}
{"Target gene": "OPN3 (GeneID 23596)", "reagent": 1, "total luciferase, z-score": 2, "activity call": "inactive"}
{"Target gene": "OPN3 (GeneID 23596)", "reagent": 2, "total luciferase, z-score": 0.243, "activity call": "inactive"}
{"Target gene": "OPN3 (GeneID 23596)", "reagent": 3, "total luciferase, z-score": 0.803, "activity call": "inactive"}
